This passage reports binding signal results from publication PMC7819943, “Rice protein-binding microarrays: a tool to detect cis-acting elements near promoter regions in rice”.

By UniProt entry, the sequences of proteins in these tests, tags left out.
UniProt Q0JBA9, entry or part of it: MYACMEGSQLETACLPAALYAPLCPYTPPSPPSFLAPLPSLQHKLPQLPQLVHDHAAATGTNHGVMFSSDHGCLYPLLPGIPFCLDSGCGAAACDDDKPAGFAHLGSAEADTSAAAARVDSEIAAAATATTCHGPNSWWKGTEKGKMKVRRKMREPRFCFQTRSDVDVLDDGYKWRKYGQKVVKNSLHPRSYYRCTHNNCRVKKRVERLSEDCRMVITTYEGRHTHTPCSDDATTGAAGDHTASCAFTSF

The list shows a part of the results.

The assay has as its target OsWRKY34 (Oryza sativa, UniProt Q0JBA9 1-250). Put plainly: protein-binding microarray (RPBM); PBS, 2% BSA, 51.3 ng/ul salmon testes DNA, 50 uM zinc acetate, 200 nM TF, 25 C, 1 h; high values mean tight binding. As to conditions: protein: recombinant; tags: N-terminal polyhistidine and DsRed monomer fusion (pET32a); label: CyDye5-dUTP incorporated in the synthesized complementary strand; 3' TTTTT single-stranded linker to array surface; dsDNA, one strand shown. In outline: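 Transcription factors, each fused N-terminally to a polyhistidine tag and DsRed, were expressed in E. coli BL21-CodonPlus and purified on Ni–NTA. A custom Agilent array was made double-stranded by primer extension with Cy5-dUTP and blocked with 2% BSA. It was incubated with 200 nM protein in PBS, 2% BSA, salmon testes DNA and 50 µM zinc acetate at 25 °C for 1 h, then washed. The binding signal is per-feature fluorescence intensity (arbitrary units) read on an Axon 4000B scanner.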
“AGTAGCTCATTGCCTGCCAATCTTCTCTTTCCCTTCTGCTCGGAGTCACCTAGTGCAG”: the binding signal was 8600 fluorescence intensity (a.u.).
The same measure for “GCCTCGACCAGCAACGCTGCCGCCATTTGCACACGCTAGCCGGAGTCACCTAGTGCAG”: 8490 fluorescence intensity (a.u.); for “GATCCACTCATCTCTCCTGGCTAAGAATCAATCTCTTCTTCGGAGTCACCTAGTGCAG”: 8160 fluorescence intensity (a.u.); for “ATTGCCCCTAGTTTGTATGCACCAGTTCACCAACATTTTTCGGAGTCACCTAGTGCAG”: 8860 fluorescence intensity (a.u.).
The same measure for “GATGGACGGCGACGGAGGCGGGGATGGAGGGGAATGGCGTCGGAGTCACCTAGTGCAG”: 10700 fluorescence intensity (a.u.).
As for “TGGTTGTGTCTTGTTCGGTCTTGCTGTTACTCTTTTTCACCGGAGTCACCTAGTGCAG”, the binding signal is 15600 fluorescence intensity (a.u.).
The same measure for “ATTTCTTATGCATTGTGTGTTATGTGTTGCATACAAAATTCGGAGTCACCTAGTGCAG”: 8790 fluorescence intensity (a.u.); for “CCCACCGGATCCGCCGCTTCCTCCGCCGCGGTGGCGCTCGCGGAGTCACCTAGTGCAG”: 8550 fluorescence intensity (a.u.); for “TTGAATGAATATTTAATTATATGCTGTCATTTCTCATTTACGGAGTCACCTAGTGCAG”: 8330 fluorescence intensity (a.u.).
The figure for “AATGTTGGAGTATTATTCTGTGAGGGGAGGCGGGCAATCACGGAGTCACCTAGTGCAG” is 13200 fluorescence intensity (a.u.); for “GTTTGCTGCACCTCATGGCCGCCATGCATATGCAGTTCGTCGGAGTCACCTAGTGCAG” it is 8990 fluorescence intensity (a.u.); for “GGTAAATTATCCATATACTAACTTTCATTCGTTTGCAAGCCGGAGTCACCTAGTGCAG” it is 9380 fluorescence intensity (a.u.).
Take “AGCGTCGCTGCCATCATCGCCGTCGCGTCGCTCGTCGCCGCGGAGTCACCTAGTGCAG”: the binding signal was 8220 fluorescence intensity (a.u.).
Regarding “TTCTTTTTTACTTTCCTGCCACTTTTGCTTAATCTATTGCCGGAGTCACCTAGTGCAG”, the binding signal is 9360 fluorescence intensity (a.u.).
The figure for “CCTGTCATGGAGGATGTTTCCTGAAGTTTCAGAGCTGTATCGGAGTCACCTAGTGCAG” is 8310 fluorescence intensity (a.u.); for “TGTACTTCAAAAATTTACTTTACCGTGTGTTTTATTTTTTCGGAGTCACCTAGTGCAG” it is 9650 fluorescence intensity (a.u.); for “TTATTGTTAGTTTGGCGCCCTTTGCCAGGTCCAAATTAAGCGGAGTCACCTAGTGCAG” it is 9410 fluorescence intensity (a.u.).
The same measure for “CATCAGCTTGACCGCCTCACCTCACCACCCCAAGCTAGACCGGAGTCACCTAGTGCAG”: 10700 fluorescence intensity (a.u.); for “ATCATTATGATCTACACTTTTCGTTACATTTTCTTCTATTCGGAGTCACCTAGTGCAG”: 11600 fluorescence intensity (a.u.); for “AGGTGGTGTGATGTGAAAGTAAATTTGTCATCCCCGGTGCCGGAGTCACCTAGTGCAG”: 8080 fluorescence intensity (a.u.).
The same measure for “ATGTCATTGGGTTGGGCCTTATTTTCAAAAATACCCAAAACGGAGTCACCTAGTGCAG”: 13700 fluorescence intensity (a.u.).
On to “CAGTAAATTTAATCGTCACCGTACAATTATCGTATTTCGCCGGAGTCACCTAGTGCAG”, for which the binding signal is 8050 fluorescence intensity (a.u.).
On to “TATTGTTCCATGTCGGCACCACATCACCCAAAAACGTCTTCGGAGTCACCTAGTGCAG”, for which the binding signal is 9270 fluorescence intensity (a.u.).
Regarding “TCAGTAGCATTTCCGGGTCCCATCTATATGGACTAATTTTCGGAGTCACCTAGTGCAG”, the binding signal is 9100 fluorescence intensity (a.u.).
Turning to “CTATACACACCCATCTCACCATAACACACATACATAGATACGGAGTCACCTAGTGCAG”, the binding signal was 9790 fluorescence intensity (a.u.).
The same measure for “ACTATTTGTTTATTGCAAAATACGGGCTTTTTCAAATTAGCGGAGTCACCTAGTGCAG”: 8170 fluorescence intensity (a.u.).
“AGAAAAAAACGTAGAGATCCACGCCGCATTCTCCATTTCTCGGAGTCACCTAGTGCAG”: the binding signal was 9510 fluorescence intensity (a.u.).
“TCTGAACATCGATCGAGTTGACCACTGTCGTTTTAGTTTCCGGAGTCACCTAGTGCAG”: the binding signal is 13900 fluorescence intensity (a.u.).
The same measure for “TTTATGCTAGTGTGTTGTGTGTGGATGTATATCCGTGTGGCGGAGTCACCTAGTGCAG”: 8990 fluorescence intensity (a.u.); for “TAGTTGCTACTAGAGTGTGTTTCTTGTGTTGATCTGAGTTCGGAGTCACCTAGTGCAG”: 9590 fluorescence intensity (a.u.); for “GCCCGCTAGTTTGTCCTATGCAGCCGCCCTACGTCAGCCACGGAGTCACCTAGTGCAG”: 9640 fluorescence intensity (a.u.).
The figure for “ACTCCGCCGCCACCACGAACTCAATTCCACGGGACAAATTCGGAGTCACCTAGTGCAG” is 8330 fluorescence intensity (a.u.).
The figure for “GCACAGGATTCTGATTTCTAAGCTACCTCTGCCTAGCCTCCGGAGTCACCTAGTGCAG” is 8570 fluorescence intensity (a.u.).
Take “GCCTCTGCTTCTCGAAGCCCGGCCTGTAGCCTCGCCTCGCCGGAGTCACCTAGTGCAG”: the binding signal is 8630 fluorescence intensity (a.u.).
The same measure for “CGTTCCCATTCCCCGGCCGTTTTCTTGGTGTTTGCATTGCCGGAGTCACCTAGTGCAG”: 10200 fluorescence intensity (a.u.); for “TTTTAATTATGCTCAAGTCATCTTCTCTCAAACTGTTTTTCGGAGTCACCTAGTGCAG”: 9000 fluorescence intensity (a.u.); for “ACCAAAACTTTTGACCTTTGACCATGAGTTTCATATTATACGGAGTCACCTAGTGCAG”: 9480 fluorescence intensity (a.u.).
The figure for “GCAACCTCCTCCGCCTCCGTGAACGACCGCCGCCGCTCGTCGGAGTCACCTAGTGCAG” is 8520 fluorescence intensity (a.u.); for “ATATGGTATGACAACTATCCATCCGAATCCGCTCCATTTTCGGAGTCACCTAGTGCAG” it is 8400 fluorescence intensity (a.u.); for “AGTCTCTTGCCCTTTACCTTGGATATACACATGCTCATTCCGGAGTCACCTAGTGCAG” it is 8980 fluorescence intensity (a.u.).
The figure for “TTTGATTGATGGCCATAAGTTGCCACACTTTGCCACACTTCGGAGTCACCTAGTGCAG” is 8110 fluorescence intensity (a.u.).
Consider “TTCTTCTGTTCAGCTGTCCTCCGTTCCTCCTTACCATGCACGGAGTCACCTAGTGCAG”, for which the binding signal was 9450 fluorescence intensity (a.u.).
For “CACCATTCCACCAACTAGCTAGCTAGCTAGCCACGCCATCCGGAGTCACCTAGTGCAG”, the binding signal is 8970 fluorescence intensity (a.u.).
The same measure for “TACTTAGCAAAAGCATCATTATCGAGGCACGGTTTTTTATCGGAGTCACCTAGTGCAG”: 8450 fluorescence intensity (a.u.); for “CCGGGAGCCGCAGCCCGCAGTTCGCCACCACCACGGTCCACGGAGTCACCTAGTGCAG”: 9520 fluorescence intensity (a.u.).
The same measure for “GCGCCGTCGCTCGTCCTGCTGCTGCTTCCGCCGAATCCTGCGGAGTCACCTAGTGCAG”: 10800 fluorescence intensity (a.u.).
The same measure for “GCCACAGCTCTTGATTTCTCGCTGGATCCTGGTTTTCACCCGGAGTCACCTAGTGCAG”: 8430 fluorescence intensity (a.u.); for “GTCTGTTTCGATCGGTTCTTCCATTGGTACACACACGTCCCGGAGTCACCTAGTGCAG”: 11300 fluorescence intensity (a.u.).
Take “TGTGATTTTGTGAGTAATTATTTTCTACTTTGCTAGCTTCCGGAGTCACCTAGTGCAG”: the binding signal was 8910 fluorescence intensity (a.u.).
The same measure for “GCGCCTCGCCTCGCCTCGCCTCACCTCACCTCACCTCACCCGGAGTCACCTAGTGCAG”: 9000 fluorescence intensity (a.u.); for “ATCCAATCTCCTCCTCGCCGCCATCGCGATCTCCGCCGCCCGGAGTCACCTAGTGCAG”: 8120 fluorescence intensity (a.u.); for “GTCTCGCCTTCGCCTCGCCTCGTCTGCTCCACCATCCACCCGGAGTCACCTAGTGCAG”: 8970 fluorescence intensity (a.u.).
The same measure for “GGCTTTTCCCCTTAGGGGATGATTTGAGTTTTCCTGTTCACGGAGTCACCTAGTGCAG”: 8480 fluorescence intensity (a.u.); for “ACGCAGCATCCTTTGTTTTTTCAACTTGCTTACACAGTTACGGAGTCACCTAGTGCAG”: 8430 fluorescence intensity (a.u.).
